This passage reports binding results from patent publication US20140273152A1.

This assay has as its target MnxG (Bacillus sp. strain PL-12). Description: co-purification; MS/MS of the active band from non-denaturing SDS-PAGE; size exclusion chromatography gives 230 kDa for the complex. Background: SEC sorts molecules by how far they enter the pores of the column.

These are yes or no findings as the source states them, for the method shown. In cells and extracts the contact can be indirect. Binding can be weak; no strength is given.

B1: MnxF (protein)
chain: MEALFPMSTDYSKMTDVNEIHDSAILEHFRNGIGHKTLVISPSYPYMFVGIIKELIGDTVMIDVETTHFAQLENREWYIHIHNIEVFYIERPGAPKIPKLEDY
With B1, the binding entry was “binds”.

B2: MnxE (protein)
chain: MHDSPLKSLSAASNVASVNDPLFDFFNKHMGKQILIITESSQLNILGQTFRPIFCGKVAEVEPGHLTLSPVTIKILNAPFHKFPIPLSIPFEKIAHFTTDVDCSMRIPLV
B2: the binding result was “binds”.
